From publication doi:10.1101/2024.08.08.607204, “Mechanism of ASF1 Inhibition by CDAN1” (bioRxiv, 2024)
Changes are numbered by the printed parent chain. Names may count otherwise. Results are given in words; binding and its absence hold for the method and conditions named. In cells and extracts the contact can be indirect. Some results given as binding are weak or reduced against the parent protein; the word gives no strength. For some assays here: Where a sequence is shown, tags or fusion partners need not be part of it.

Chains of the proteins cited; added tags and fusions are not shown.
UniProt Q9Y294: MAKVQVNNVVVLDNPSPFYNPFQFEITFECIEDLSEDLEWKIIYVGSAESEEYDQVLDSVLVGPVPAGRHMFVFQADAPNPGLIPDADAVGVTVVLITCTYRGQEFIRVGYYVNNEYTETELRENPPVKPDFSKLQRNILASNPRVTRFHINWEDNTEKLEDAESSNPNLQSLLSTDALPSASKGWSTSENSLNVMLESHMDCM
UniProt Q9NVP2: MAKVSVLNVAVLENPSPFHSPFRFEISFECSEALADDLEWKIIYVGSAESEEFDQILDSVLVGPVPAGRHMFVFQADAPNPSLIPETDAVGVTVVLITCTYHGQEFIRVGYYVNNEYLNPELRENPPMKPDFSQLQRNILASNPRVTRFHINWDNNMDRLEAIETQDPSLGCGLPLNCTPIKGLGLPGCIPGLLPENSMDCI

B1: Strep-tagged CDAN1 (ST-CDAN1), wildtype (natural protein, human)
chain: MAAVLESLLREEVSVAAVVRWIARSTQGSEDNAGEAAALSSLRALRKEFVPFLLNFLREQSSRVLPQGPPTPAKTPGASAALPGRPGGPPRGSRGARSQLFPPTEAQSTAAEAPLARRGGRRRGPGPARERGGRGLEEGVSGESLPGAGGRRLRGSGSPSRPSLTLSDPPNLSNLEEFPPVGSVPPGPTGTKPSRRINPTPVSEERSLSKPKTCFTSPPISCVPSSQPSALDTSPWGLGLPPGCRSLQEEREMLRKERSKQLQQSPTPTCPTPELGSPLPSRTGSLTDEPADPARVSSRQRLELVALVYSSCIAENLVPNLFLELFFVFQLLTARRMVTAKDSDPELSPAVLDSLESPLFQSIHDCVFFAVQVLECHFQVLSNLDKGTLKLLAENERLLCFSPALQGRLRAAYEGSVAKVSLVMPPSTQAVSFQPETDNRANFSSDRAFHTFKKQRDVFYEVLREWEDHHEEPGWDFEKGLGSRIRAMMGQLSAACSHSHFVRLFQKQLLQMCQSPGGAGGTVLGEAPDVLSMLGADKLGRLWRLQERLMAPQSSGGPCPPPTFPGCQGFFRDFILSASSFQFNQHLMDSLSLKIQELNGLALPQHEPNDEDGESDVDWQGERKQFAVVLLSLRLLAKFLGFVAFLPYRGPEPPPTGELQDSILALRSQVPPVLDVRTLLQRGLQARRAVLTVPWLVEFLSFADHVVPLLEYYRDIFTLLLRLHRSLVLSQESEGKMCFLNKLLLLAVLGWLFQIPTVPEDLFFLEEGPSYAFEVDTVAPEHGLDNAPVVDQQLLYTCCPYIGELRKLLASWVSGSSGRSGGFMRKITPTTTTSLGAQPSQTSQGLQAQLAQAFFHNQPPSLRRTVEFVAERIGSNCVKHIKATLVADLVRQAESLLQEQLVTQGEEGGDPAQLLEILCSQLCPHGAQALALGREFCQRKSPGAVRALLPEETPAAVLSSAENIAVGLATEKACAWLSANITALIRREVKAAVSRTLRAQGPEPAARGERRGCSRACEHHAPLPSHLISEIKDVLSLAVGPRDPDEGVSPEHLEQLLGQLGQTLRCRQFLCPPAEQHLAKCSVELASLLVADQIPILGPPAQYRLERGQARRLLHMLLSLWKEDFQGPVPLQLLLSPRNVGLLADTRPREWDLLLFLLRELVEKGLMGRMEIEACLGSLHQAQWPGDFAEELATLSNLFLAEPHLPEPQLRACELVQPNRGTVLAQS
notes: Codanin-1 (CDAN1) cDNA from Horizon Discovery/Dharmacon; a point mutation of the clone (S421F) was corrected; in pCDNA3.1; Dimer by SEC-MALS and cryo-EM; Same plasmid used in Expi293 (purifications) and in Flp-In 293 T-REx (pulldowns); kept as one molecule; also called WT CDAN1; Strep-CDAN1; source: Expi293, transiently transfected, in lysate and purified in complexes (anti-FLAG, Strep-Tactin); …

Key:
[1] = molecular target: B1; assay: pull-down; Strep-Tactin Sepharose pulldown of ST-CDAN1 variants from lysates of transfected Flp-In 293 T-REx cells (alone, or co-transfected with FLAG-tagged ASF1 variants), IP buffer with 1% Triton X-100, 1 hr at 4°C; immunoblotting
[2] = molecular target: T1, Strep-CDAN1 H*+B* (S194A/R195A/R196 + R541A/R544A/R548A) (human) (UniProt Q8IWY9); assay: as above
T1 sequence: B1 chain with S194A, R195A, R196A, R541A, R544A, R548A

[3] = molecular target: T2, FLAG-tagged CDIN1 (F-CDIN1) (UniProt Q9Y2V0); assay: co-IP + pull-down; tandem purification from transiently transfected Expi293 cells: anti-FLAG immunoprecipitation, 3x FLAG peptide elution, then Strep-Tactin pulldown, desthiobiotin elution; Coomassie staining and immunoblotting
T2 sequence: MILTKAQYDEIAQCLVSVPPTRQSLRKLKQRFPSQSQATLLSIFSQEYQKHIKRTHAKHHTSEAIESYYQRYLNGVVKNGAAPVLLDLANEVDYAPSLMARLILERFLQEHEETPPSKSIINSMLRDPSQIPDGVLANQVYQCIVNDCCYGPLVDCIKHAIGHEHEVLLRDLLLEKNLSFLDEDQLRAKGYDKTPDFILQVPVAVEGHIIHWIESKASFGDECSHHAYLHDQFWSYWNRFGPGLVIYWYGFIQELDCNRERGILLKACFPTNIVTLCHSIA

[4] = molecular target: FLAG-tagged ASF1A (F-ASF1A) (human) (UniProt Q9Y294); assay: as above
[5] = molecular target: T3, endogenous CDIN1 with a C-terminal HaloTag-FLAG (HF) epitope (human (endogenous in Flp-In 293 T-REx)) (UniProt Q9Y2V0); assay: co-IP; anti-FLAG M2 agarose immunoprecipitation of endogenously HaloTag-FLAG-tagged CDAN1 or CDIN1 from Flp-In 293 T-REx lysates in IP buffer (50 mM HEPES pH 7.5, 100 mM KOAc, 2.5 Mg(OAc)2, 1% Triton X-100); immunoblotting
T3 sequence: T2 sequence

FLAG-tagged ASF1B (F-ASF1B) (from UniProt Q9NVP2 1-202)
binding [1]: binds | binding [2]: no binding

HA-tagged ASF1A (from UniProt Q9Y294 1-204)
binding [3]: binds

endogenous ASF1A (from UniProt Q9Y294 1-204) (other; other documents disagree on this pair)
binding [4]: binds

B1
binding [5]: binds
